These results are taken from patent US20030212253A1 (AMERICAN NATIONAL RED CROSS, published 2003).

By UniProt entry, the sequences of proteins in these tests, tags left out. Residues count along the entry.
UniProt P01009, residues 25-418: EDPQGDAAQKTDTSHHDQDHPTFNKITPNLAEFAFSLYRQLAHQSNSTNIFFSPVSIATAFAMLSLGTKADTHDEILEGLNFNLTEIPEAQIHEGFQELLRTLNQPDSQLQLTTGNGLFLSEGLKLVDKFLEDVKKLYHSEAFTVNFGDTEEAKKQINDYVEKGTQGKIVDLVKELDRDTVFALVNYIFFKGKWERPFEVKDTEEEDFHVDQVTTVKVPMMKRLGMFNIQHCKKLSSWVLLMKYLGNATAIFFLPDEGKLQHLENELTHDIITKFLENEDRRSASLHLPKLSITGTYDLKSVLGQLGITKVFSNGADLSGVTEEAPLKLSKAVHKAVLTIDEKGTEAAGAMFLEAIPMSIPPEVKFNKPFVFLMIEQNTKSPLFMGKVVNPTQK

This assay deals with α1 proteinase inhibitor (API), human plasma (human) (UniProt P01009). In words: on-bead 6-mer library screen with plasma, 14C-labeled or purified API; anti-API detection after transfer to membrane.

No constants are given. Whether binding was seen depends on the method and setting. Some entries that bind do so weakly or less than the wild type.

Take HFDLHR (C-terminus attached to library resin bead) [HFDLHR (SEQ ID NO: 47) peptide on library resin bead]: the binding result is “binds”.
